Where “and” joins values, the source holds several entries; their conditions need not be identical. Equal entries are not always repeated. Structures can show the parent of a compound that is named as a salt.
Details: individual micronised formoterol fumarate dihydrate batches, dry dispersion

COc1ccc(CC(C)NCC(O)c2ccc(O)c(NC=O)c2)cc1 (stereo not shown) [7544MA, formoterol fumarate dihydrate]
PSD <10 μm: 100%
PSD d10: 0.5 μm (5×) and 0.6 μm (2×)
PSD d50: 1.6 μm (5×) and 1.8 μm and 1.7 μm
PSD d90: 3.3 μm (4×) and 3.4 μm (2×) and 3.2 μm

COc1ccc(CC(C)NCC(O)c2ccc(O)c(NC=O)c2)cc1 (stereo not shown) [7544MO, formoterol fumarate dihydrate]
PSD <10 μm: 99% (2×) and 100% (3×)
PSD d10: 0.5 μm
PSD d50: 1.7 μm (3×) and 1.9 μm and 1.8 μm
